The list does not hold the whole screen: it gathers tests that were run many times, whatever their T/C, doses with no T/C, and many T/C values between a quarter and a half above the control. Other doses and runs of a compound stand elsewhere. T/C: endpoint of the treated group in % of that of the vehicle group. Some doses have a count of surviving animals in place of a T/C: the source holds a T/C of zero for them, seemingly a mark for toxic or unscored doses. Some doses without a T/C left all or most animals alive at the check, yet need not have been tolerated: survival well below the control is almost never listed, so the zero probably covers shortened survival too. Counts of survivors are from the toxicity check (mostly the fifth day) where no day follows; animals may have died later. Schedule codes are those of the source, taken here to give the interval after Q, in days (D) or hours (H), and the number of doses after X. Some entries hold several experiments; their values stand side by side, smallest first. Some molecules as drawn cover several salts, stereoisomers or complexes of the source; a dose is that of the sample tested. For survival time, the PubChem record calls one and a half times the control and up active, and a quarter to a half above the control has no call in these data; cut-offs in other NCI protocols can differ. Some T/C values are followed by the survivors on the day toxicity was checked, most often the fifth; without a count, all were alive then.
Tested on: P388 leukemia ip, CD2F1 mice, survival T/C
Assay: NCI In Vivo Anticancer Drug Screen. Data for tumor model P388 Leukemia (intraperitoneal) in CD2F1 (CDF1) mice
Settings: T/C endpoint: median survival time, higher T/C = longer survival
[1] = dose: 100.0 mg/kg/injection, schedule: Q01DX005 (ip), vehicle: Klucel (hydroxypropylcellulose) (HPC)
[2] = dose: 200.0 mg/kg/injection, schedule: Q01DX005 (ip), vehicle: Klucel (hydroxypropylcellulose) (HPC)
[3] = dose: 400.0 mg/kg/injection, schedule: Q04DX002 (ip), vehicle: Klucel (hydroxypropylcellulose) (HPC)
[4] = dose: 50.0 mg/kg/injection, schedule: Q01DX005 (ip), vehicle: Klucel (hydroxypropylcellulose) (HPC)
[5] = dose: 100.0 mg/kg/injection, schedule: Q01DX009 (ip), vehicle: saline with Tween-80
[6] = dose: 200.0 mg/kg/injection, schedule: Q01DX009 (ip), vehicle: saline with Tween-80
[7] = dose: 60.0 mg/kg/injection, schedule: Q01DX005 (ip), vehicle: saline with Tween-80
[8] = dose: 120.0 mg/kg/injection, schedule: Q01DX005 (ip), vehicle: saline with Tween-80
[9] = dose: 240.0 mg/kg/injection, schedule: Q01DX005 (ip), vehicle: saline with Tween-80
[10] = dose: 200.0 mg/kg/injection, schedule: Q01DX005 (ip), vehicle: saline with Tween-80
[11] = dose: 100.0 mg/kg/injection, schedule: Q01DX005 (ip), vehicle: saline
[12] = dose: 200.0 mg/kg/injection, schedule: Q01DX005 (ip), vehicle: saline
[13] = dose: 400.0 mg/kg/injection, schedule: Q01DX001 (ip), vehicle: saline with Tween-80
[14] = dose: 12.5 mg/kg/injection, schedule: Q01DX009 (ip), vehicle: saline with Tween-80
[15] = dose: 400.0 mg/kg/injection, schedule: Q04DX003 (ip), vehicle: saline
[16] = dose: 200.0 mg/kg/injection, schedule: Q01DX009 (ip), vehicle: saline
[17] = dose: 400.0 mg/kg/injection, schedule: Q01DX009 (ip), vehicle: saline with Tween-80
[18] = dose: 100.0 mg/kg/injection, schedule: Q01DX005 (ip), vehicle: saline with Tween-80

## O=c1[nH]cnc2c1cnn2CN1CCOCC1
[1]
  T/C: 130 % of control
[2]
  T/C: 130 % of control
  survivor count: 6 of 6

## Nc1nc(Cl)nc2c1ncn2C1CCCO1 (centres undefined)
dose: 100.0 mg/kg/injection, schedule: Q04DX002 (ip), vehicle: Klucel (hydroxypropylcellulose) (HPC)
  survivor count: 0 of 6
dose: 200.0 mg/kg/injection, schedule: Q04DX002 (ip), vehicle: Klucel (hydroxypropylcellulose) (HPC)
  survivor count: 0 of 6
[3]
  survivor count: 1 of 6

## CCc1nc(N)nc(N)c1-c1ccc2nn(-c3ccccc3)[n+]([O-])c2c1
[4]
  T/C: 129 % of control [5 of 6 alive]
[1]
  T/C: 127 and 131 % of control [5 of 6 alive]
[2]
  T/C: 142 % of control
dose: 400.0 mg/kg/injection, schedule: Q01DX005 (ip), vehicle: Klucel (hydroxypropylcellulose) (HPC)
  survivor count: 0 of 6

## c1cnc2ccc3ncccc3c2c1
[1]
  survivor count: 2 of 5
[2]
  survivor count: 0 of 5

## COc1ccc(CN2COc3c(cc(C)c4cccnc34)C2)cc1
[5]
  survivor count: 3 of 6

## CC(C)(C)c1cc(C#CC#Cc2cc(C(C)(C)C)cc(C(C)(C)C)c2)cc(C(C)(C)C)c1
[1]
  survivor count: 6 of 6
[2]
  survivor count: 6 of 6

## COC(=O)C(C#N)=C(SC)SC
[5]
  survivor count: 4 of 6
[6]
  survivor count: 0 of 6

## Nc1nc(=O)[nH]c([O-])c1N=O.Nc1nc(=O)[nH]c([O-])c1N=O.[Ag+].[Ag+]
[7]
  survivor count: 0 of 6 and 3 of 6
[8]
  survivor count: 0 of 6
[9]
  survivor count: 0 of 6

## O=C1C2C3C=CC(O3)C2C(=O)N1CCN1CCCCC1 (centres undefined)
dose: 200.0 mg/kg/injection, schedule: Q01DX005 (ip), vehicle: other
  survivor count: 0 of 5

## CC(=O)N(C(C)=O)N(C(C)=O)c1cc2ccccc2cn1
[10]
  survivor count: 4 of 6

## COc1cccc2c1C(=O)c1c(O)c3c(c(O)c1C2=O)C[C@@](O)(C(C)=O)C[C@@H]3OC1CC(O)C(O)C(C)O1 (some centres undefined)
dose: 25.0 mg/kg/injection, schedule: Q04DX003 (ip), vehicle: water
  T/C: 127 % of control
dose: 50.0 mg/kg/injection, schedule: Q04DX003 (ip), vehicle: water
  T/C: 147 % of control [5 of 6 alive]

## CN(C)C1=NC(NCc2ccccc2)(N(C)C)OC(N(C)C)=N1 (centres undefined)
[11]
  survivor count: 2 of 6
[12]
  survivor count: 0 of 6

## OP12(OC(C(F)(F)F)(C(F)(F)F)c3ccccc31)OC(C(F)(F)F)(C(F)(F)F)c1ccccc12
[3]
  survivor count: 4 of 6

## O=C(O)c1nn(-c2ccccc2)c2c1CSc1ccccc1-2
[13]
  survivor count: 0 of 6

## C=C(C(N)=O)C(N)C(=O)O (centres undefined)
[7]
  T/C: 125 % of control
[8]
  T/C: 131 and 134 % of control
[9]
  T/C: 137 % of control
  survivor count: 0 of 6
dose: 480.0 mg/kg/injection, schedule: Q01DX005 (ip), vehicle: saline with Tween-80
  survivor count: 0 of 6

## CNC(=O)OCc1c(COC(=O)NC)c(-c2ccc([N+](=O)[O-])cc2)n(C)c1C
dose: 3.13 mg/kg/injection, schedule: Q01DX009 (ip), vehicle: distilled water + Tween-80
  T/C: 146 % of control
dose: 25.0 mg/kg/injection, schedule: Q01DX009 (ip), vehicle: distilled water + Tween-80
  survivor count: 6 of 6
dose: 50.0 mg/kg/injection, schedule: Q01DX009 (ip), vehicle: distilled water + Tween-80
  survivor count: 4 of 6
dose: 100.0 mg/kg/injection, schedule: Q01DX009 (ip), vehicle: distilled water + Tween-80
  survivor count: 1 of 6

## Cc1cccc(NC(=O)N(CCCl)N=O)c1
dose: 0.75 mg/kg/injection, schedule: Q01DX009 (ip), vehicle: saline
  T/C: 148 % of control
[14]
  survivor count: 6 of 6
dose: 18.75 mg/kg/injection, schedule: Q04DX003 (ip), vehicle: saline with Tween-80
  survivor count: 6 of 6
dose: 25.0 mg/kg/injection, schedule: Q04DX003 (ip), vehicle: saline with Tween-80
  survivor count: 6 of 6

## O=C(O)/C(Cl)=C(\Cl)C(=O)Nc1cccc([N+](=O)[O-])c1
[9]
  survivor count: 2 of 6

## CCN(CC)CCSC(=O)N1c2ccccc2Sc2ccc(Cl)cc21
[14]
  survivor count: 6 of 6

## CC1=CC(=NC(=O)CBr)C=C/C1=N\S(=O)(=O)c1ccccc1
dose: 50.0 mg/kg/injection, schedule: Q01DX009 (ip), vehicle: saline with Tween-80
  survivor count: 3 of 6
[5]
  survivor count: 0 of 6
[6]
  survivor count: 0 of 6

## CN1CCN(C(=O)N2CCCc3ccccc32)CC1
[15]
  survivor count: 0 of 6

## CO[n+]1ccccc1Cc1ccccc1
dose: 25.0 mg/kg/injection, schedule: Q01DX009 (ip), vehicle: saline
  T/C: 146 % of control

## O=C1c2sccc2C2NC12 (centres undefined)
[12]
  survivor count: 5 of 6

## CCOC(=O)c1c[nH]c2c(=O)n(C)c(=O)[nH]c12
dose: 400.0 mg/kg/injection, schedule: Q04DX003 (ip), vehicle: saline with Tween-80
  survivor count: 4 of 6

## CC1CN1C(=O)Nc1cccc(Cl)c1 (centres undefined)
[16]
  survivor count: 5 of 6

## NNc1n[nH]c(=O)c2cnccc12
dose: 200.0 mg/kg/injection, schedule: Q04DX002 (ip), vehicle: saline with Tween-80
  survivor count: 2 of 6
dose: 400.0 mg/kg/injection, schedule: Q04DX002 (ip), vehicle: saline with Tween-80
  survivor count: 0 of 6

## CN1[C@@H](CC(=O)c2ccccc2)CCC[C@H]1CC(=O)c1ccccc1
[16]
  survivor count: 1 of 6

## CC12NC(=O)NC1(C)NC(=O)N2 (centres undefined)
[16]
  survivor count: 4 of 6
[15]
  survivor count: 0 of 6

## O=C1C=CC(=Nc2ccc3c(c2)C(=O)c2ccccc2-3)O1
[10]
  survivor count: 2 of 6

## c1cc2nc(-c3ccc4cc(C5=NCCN5)[nH]c4c3)[nH]c2cc1C1=NCCN1
dose: 50.0 mg/kg/injection, schedule: Q01DX005 (ip), vehicle: saline
  survivor count: 2 of 6
[11]
  survivor count: 0 of 6
[12]
  survivor count: 0 of 6

## Nc1cccc2c1C(=O)c1ccc(C(=O)O)cc1C2=O
[2]
  survivor count: 6 of 6

## C1CCC(C2CCCC[N-]2)[N-]C1.C1CCC(C2CCCC[N-]2)[N-]C1.[Cl][Co][Cl] (centres undefined)
[16]
  survivor count: 0 of 6

## C#CC(C)(O)C(C)(C)C (centres undefined)
[16]
  survivor count: 5 of 6

## Cn1c2c([N+](=O)[O-])cccc2c(=O)c2c(O)cc3c(c21)C=CC(C)(C)O3
[13]
  survivor count: 6 of 6

## CC(C)NCC(=O)c1ccc(O)c(O)c1
dose: 100.0 mg/kg/injection, schedule: Q01DX009 (ip), vehicle: saline
  T/C: 125 and 127 % of control
[16]
  T/C: 127 and 129 % of control
dose: 264.0 mg/kg/injection, schedule: Q01DX009 (ip), vehicle: saline with Tween-80
  T/C: 136 % of control
[17]
  T/C: 127 % of control
dose: 400.0 mg/kg/injection, schedule: Q01DX009 (ip), vehicle: saline
  survivor count: 2 of 6 and 3 of 6
dose: 600.0 mg/kg/injection, schedule: Q01DX009 (ip), vehicle: saline with Tween-80
  survivor count: 2 of 6
dose: 600.0 mg/kg/injection, schedule: Q01DX009 (ip), vehicle: saline
  survivor count: 0 of 6

## C/C(=N\NC(=S)Nc1ccc(C(=O)O)cc1)c1ccccn1
[18]
  survivor count: 0 of 6
[10]
  survivor count: 0 of 6

## NCCn1[nH]c(=O)c2ncccc2c1=O
[9]
  survivor count: 2 of 6

## CCC(O)CN(C)Cc1cc2c(c3ccccc13)CCCC2 (centres undefined)
[16]
  survivor count: 0 of 6

## CCOP(=O)(OCC)C(C#N)OC(C)(C)C (centres undefined)
[9]
  survivor count: 2 of 6

## O=C1NC(O)c2cc([N+](=O)[O-])ccc2O1 (centres undefined)
dose: 400.0 mg/kg/injection, schedule: Q01DX005 (ip), vehicle: saline with Tween-80
  survivor count: 0 of 6

## CN(C)c1nc2c(N)ncnc2n1C1OC(CO)C(O)C1O (centres undefined)
[18]
  T/C: 138 % of control
[5]
  survivor count: 3 of 3
[6]
  survivor count: 0 of 3
[17]
  survivor count: 0 of 3

## Nc1ccc2[se]nc3c2c1C(=O)c1ccccc1-3
[4]
  survivor count: 5 of 6
[1]
  survivor count: 3 of 6
[2]
  survivor count: 1 of 6
